Results are given in words; binding and its absence hold for the method and conditions named. A result given as binding can be weak or reduced; the word gives no strength. Where a sequence is shown, tags or fusion partners need not be part of it.
Target: T1, Arabidopsis FIGL1, full length, yeast two-hybrid fusion (Arabidopsis thaliana) (UniProt F4JEX5)
T1 sequence: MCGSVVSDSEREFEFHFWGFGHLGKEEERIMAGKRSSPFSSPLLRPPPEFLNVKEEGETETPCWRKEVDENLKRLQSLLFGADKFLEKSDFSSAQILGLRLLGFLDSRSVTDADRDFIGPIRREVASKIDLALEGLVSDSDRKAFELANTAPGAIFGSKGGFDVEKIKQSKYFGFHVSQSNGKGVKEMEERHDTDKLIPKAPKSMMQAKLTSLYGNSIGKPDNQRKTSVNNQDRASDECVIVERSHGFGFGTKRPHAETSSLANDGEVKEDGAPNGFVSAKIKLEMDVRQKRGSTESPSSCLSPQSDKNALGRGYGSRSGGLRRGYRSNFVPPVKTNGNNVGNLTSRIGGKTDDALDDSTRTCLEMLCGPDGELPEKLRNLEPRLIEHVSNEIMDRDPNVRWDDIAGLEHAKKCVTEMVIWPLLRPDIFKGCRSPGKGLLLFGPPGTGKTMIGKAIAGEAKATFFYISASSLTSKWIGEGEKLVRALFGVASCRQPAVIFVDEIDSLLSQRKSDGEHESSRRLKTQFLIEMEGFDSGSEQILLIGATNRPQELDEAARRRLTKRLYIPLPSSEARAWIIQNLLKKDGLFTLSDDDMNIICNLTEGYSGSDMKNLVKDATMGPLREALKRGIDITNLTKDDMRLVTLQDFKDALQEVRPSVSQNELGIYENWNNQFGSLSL
Assay: two-hybrid; Gal4 system (Clontech), pGBKT7 (BD) and pGADT7 (AD) fusions, yeast strains AH109 and Y187; growth on -LWH (weak) and -LWHA (strong)

binding: binds
Substance: N-terminal half of Arabidopsis FLIP (1-502 amino acids), yeast two-hybrid fusion (domain or fragment)

Source: paper PMC5897033
